Experimental data from PubChem BioAssay AID540256 (National Center for Advancing Translational Sciences (NCATS), 2011).
Out of some 300,000 compounds screened, about 3,700 (1.2%) were called active. This list was built around the results that the source calls inconclusive (neither active nor inactive); the mix of calls is not that of the screen. The call rests on the fitted dose curve; tested in HEK293 cells. A potency beside an inconclusive call is a rough fit, not a confirmed value.

assay: qHTS for Inhibitors of binding or entry into cells for Lassa Virus; conditions: Lassa virus pseudotype entry inhibition, cell reporter; activity change, negative = inhibition: at 37.9 µM (top of the series) unless noted; further: nearly all actives have a fitted effect of over 50% in size
On the % scale 0 is the no-effect control and ±100 the full control effect; potency means the concentration at half of the fitted maximal effect.

| Compound | Potency | activity change, negative = inhibition |
| --- | --- | --- |
| COc1cc(C(=O)Nc2ccc(OCc3cc(=O)n4ccc(C)cc4n3)cc2)cc(OC)c1OC | inconclusive: 5.62 µM [inhibitor, single point] | – |
| COc1cc(Nc2ncnc3onc(-c4ccc(Cl)cc4)c23)cc(OC)c1 | – | inactive: -21.8% [at 46.1 µM] |
| CCCn1c2ccccc2c2cnn(CC(=O)N(CCCOC(C)C)Cc3ccco3)c(=O)c21 | inconclusive: 35.5 µM [inhibitor, single point] | – |
| O=C(Cc1ccc(Br)cc1)Nc1ccccc1Cl | – | inactive: -9.61% |
| O=S(=O)(c1cccc(NC(=S)N2CCN(c3ccccc3F)CC2)c1)C(F)F | – | inactive: -14.9% |
| CCOC(=O)C1=C(Cc2ccc(Cl)cc2)C(=O)c2ccccc2C1=O | active: 23.1 µM | – |
| CCN(c1ccccc1)S(=O)(=O)c1cc(C(=O)Nc2ccc(Br)cc2)ccc1F | active: 11.6 µM | – |
| Cc1ccc(C2(C)NC(=O)N(CC(=O)N(Cc3ccccc3)C(C)(C)C)C2=O)cc1 (stereo not given) | inconclusive: 7.08 µM [inhibitor, full curve, poor fit] | – |
| CCOC(=O)c1c(Nc2ccccc2)nnc(-c2ccccc2)c1-c1ccccc1 | inconclusive: 7.94 µM [inhibitor, partial curve, poor fit] | – |
| COc1ccccc1NC(=O)C1=C(C)Nc2ncnn2C1c1ccc[nH]1 (stereo not given) | – | inactive: 2.16% [at 46.1 µM] |
| Cc1ccccc1C(=O)Nc1nnc(-c2ccco2)o1 | inconclusive: 20 µM [inhibitor, single point] | – |
| CCN(CC)C(=O)Cn1c(SCC(=O)Nc2ccc(C)c(C)c2)nc2ccccc21 | inconclusive: 22.4 µM [inhibitor, single point] | – |
| CSc1ccc(NS(=O)(=O)c2ccc(-n3cnnn3)cc2)cc1 | – | inactive: 13% |
| COc1ccc2oc(-c3ccc(C)c(NC(=O)c4ccc(N5CCCCC5)c([N+](=O)[O-])c4)c3)nc2c1 | – | inactive: -22.8% [at 46.1 µM] |
| CCOc1ccccc1NC(=O)C(OC(=O)c1cc(C)oc1C)c1ccccc1 (stereo not given) | inconclusive: 10 µM [inhibitor, partial curve, poor fit] | – |
| Cc1cccc(OCCCn2c(CO)nc3ccccc32)c1 | inconclusive: 10 µM [inhibitor, partial curve, poor fit] | – |
| COc1ccccc1C(=O)Nc1ccnn1C1CCN(C(=O)c2cnsn2)CC1 | inconclusive: 5.01 µM [activator, single point] | – |
| CC(C)(C)OC(=O)N1CCC(c2c(C(=O)NCCN3CCOCC3)cnn2-c2ccccc2)CC1 | – | inactive: 1.41% [at 46.1 µM] |
| O=C(CSc1ccc(-c2cccs2)nn1)NCCc1ccccc1 | – | inactive: 0.0282% |
| Cc1cc(C(=O)CSc2nnnn2-c2ccccc2)c(C)n1CC1CCCO1 (stereo not given) | inconclusive: 29.1 µM [inhibitor, single point] | – |

Rewritten with bars between the fields: part of the list above.
Compound | Potency | activity change, negative = inhibition
CCOc1ccccc1NC(=O)C(OC(=O)c1cc(C)oc1C)c1ccccc1 (stereo not given) | inconclusive: 10 µM [inhibitor, partial curve, poor fit] | –
Cc1cccc(OCCCn2c(CO)nc3ccccc32)c1 | inconclusive: 10 µM [inhibitor, partial curve, poor fit] | –
